Some of the results follow. Single values are uncertain, as repeats are few or missing.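 The apoptosis fraction was the count of cleaved-PARP antibody-stained nuclei relative to all DNA-stained nuclei, imaged in 1,536-well plates. Screening doses were set so most cells survived, and baseline and induced cleaved-PARP levels vary greatly across cell lines.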
System: 501Mel
Assay: cleaved PARP positive nuclei fraction relative to DMSO control; melanoma cells; higher = more apoptosis
Conditions: library dose: low library concentration; 72 h

In order of rising “cleaved PARP positive nuclei fraction” value:
1. COc1ccc(-c2ccc3c(N4CCOCC4)nc(N4C[C@@H](C)O[C@@H](C)C4)nc3n2)cc1CO + Oc1cc(-c2nc(-c3ccccc3)[nH]c2-c2ccncc2)ccc1Cl [L779450] (first compound 0.02 µM, partner dose 0.2 µM)  63.3%
2. COc1cc2ncnc(Nc3ccc(Oc4ccccc4)cc3)c2cc1OC + O=C(O)C(=O)Nc1sc2c(c1C(=O)O)CCNC2 [TCS401] (first compound 2 µM, partner dose 1.66667 µM)  75.9%
3. O=S(=O)(c1ccccc1)N(CC(F)(F)F)c1ccc(C(O)(C(F)(F)F)C(F)(F)F)cc1 + Cc1cc([N+](=O)[O-])ccc1NS(=O)(=O)c1cc(Cl)ccc1Cl [FH535] (first compound 1.4 µM, partner dose 1 µM)  99.4%
4. COc1ccc(COc2ccc(Cc3cnc(N)nc3N)cc2OC)cc1 + c1cc(-c2cnn3cc(-c4ccc(OCCN5CCCCC5)cc4)cnc23)ccn1 [Dorsomorphin] (first compound 1 µM, partner dose 0.4 µM)  101%
5. CCN(CC)CCCCNc1ncc2cc(-c3cc(OC)cc(OC)c3)c(NC(=O)NC(C)(C)C)nc2n1 + Cc1cc([N+](=O)[O-])ccc1NS(=O)(=O)c1cc(Cl)ccc1Cl [FH535] (first compound 0.1 µM, partner dose 1 µM)  117%

System: A101D
Assay: as above
Conditions: library dose: low library concentration; 72 h

In order of falling “cleaved PARP positive nuclei fraction” value:
1. CN(NC(=O)CC(=O)NN(C)C(=S)c1ccccc1)C(=S)c1ccccc1 + CCN(CC)CCCCNc1ncc2cc(-c3cc(OC)cc(OC)c3)c(NC(=O)NC(C)(C)C)nc2n1 [PD173074] (first compound 0.006 µM, partner dose 0.1 µM)  234%
2. O=C1NC(=O)/C(=C/c2ccc(-c3ccc(F)cc3O)o2)S1 + c1cc(-c2cnn3cc(-c4ccc(OCCN5CCCCC5)cc4)cnc23)ccn1 [Dorsomorphin] (first compound 1 µM, partner dose 0.4 µM)  205%
3. NCC(=O)Nc1ccc(-n2nc(C(F)(F)F)cc2-c2ccc3c(ccc4ccccc43)c2)cc1 + Cn1cc(/C=C2\C(=O)Nc3cccnc32)c2ccccc21 [GW441756] (first compound 1 µM, partner dose 0.4 µM)  169%
4. O=C(O)c1ccc(-c2c[nH]c3ncc(-c4ccccc4)cc23)cc1C1CCCC1 + O=C(O)C(=O)Nc1sc2c(c1C(=O)O)CCNC2 [TCS401] (first compound 0.16 µM, partner dose 1.66667 µM)  148%
5. CN(C)S(=O)(=O)c1ccc2c(c1)/C(=C/c1cc3c([nH]1)CCCC3)C(=O)N2 + COc1cc2ncnc(Nc3ccc(Oc4ccccc4)cc3)c2cc1OC [SrcI1] (first compound 0.4 µM, partner dose 2 µM)  127%
6. NCC(=O)Nc1ccc(-n2nc(C(F)(F)F)cc2-c2ccc3c(ccc4ccccc43)c2)cc1 + Cc1cc([N+](=O)[O-])ccc1NS(=O)(=O)c1cc(Cl)ccc1Cl [FH535] (first compound 1 µM, partner dose 1 µM)  119%
7. COc1cc2c(Oc3ccc4[nH]c(C)cc4c3F)ncnc2cc1OCCCN1CCCC1 [cediranib] + CCN(CC)CCCCNc1ncc2cc(-c3cc(OC)cc(OC)c3)c(NC(=O)NC(C)(C)C)nc2n1 [PD173074] (first compound 0.4 µM, partner dose 0.1 µM)  107%
8. O=C1NC(=O)/C(=C/c2ccc(-c3ccc(F)cc3O)o2)S1 + COc1cc(N2CCC(N3CCN(C)CC3)CC2)ccc1Nc1ncc(Cl)c(Nc2ccccc2S(=O)(=O)C(C)C)n1 [NVP-TAE684] (first compound 1 µM, partner dose 0.08 µM)  99.4%
9. COC(=O)c1sccc1S(=O)(=O)Nc1ccc(Nc2ccccc2)cc1OC + COc1ccc(COc2ccc(Cc3cnc(N)nc3N)cc2OC)cc1 [GW2580] (first compound 1 µM, partner dose 1 µM)  97.9%
10. O=C(Nc1ccccc1)c1cc([N+](=O)[O-])ccc1Cl + Oc1cc(-c2nc(-c3ccccc3)[nH]c2-c2ccncc2)ccc1Cl [L779450] (first compound 2 µM, partner dose 0.2 µM)  74.9%
11. COc1ccc(COc2ccc(Cc3cnc(N)nc3N)cc2OC)cc1 + O=S(=O)(c1ccccc1)N(CC(F)(F)F)c1ccc(C(O)(C(F)(F)F)C(F)(F)F)cc1 [T0901317] (first compound 1 µM, partner dose 1.4 µM)  55.2%
